The match of structure and compound is tentative.
Experiments:
Assay in all cases: Method 1: intracellular Ca2+ release (FLIPR, Calcium 5) in recombinant CHO-K1 cells
human S1PR3 receptor = human S1PR3 receptor (Homo sapiens, UniProt Q99500); settings: read-out: S1P3 EC50; (1): determined with method 1
Description: (§1) Agonistic activity was measured using two different methods, described below.
(§2) Method 1. Intracellular Ca^2+ Release
(§3) Agonist potency and intrinsic activity was assessed by measurement of intracellular Ca^2+ release. Recombinant CHO-K1 cells (Euroscreen, Brussels, Belgium) expressing human S1PR5, S1PR1, S1PR3 or S1PR4 receptors, aequorin, and GTP binding protein Gq/i5 were cultured using a medium containing nutrient mixture F-12 Ham (Sigma-Aldrich) with 10% FBS, and 100 μg/mL gentamicin and equilibrated at 5% CO2.
(§4) 15.000 cells in 20 μL medium were seeded into Biocoat poly-D-Lysine coated 384 well plates (Becton Dickinson #35-6663) and grown to 95% confluency after 24 h.
(§5) Culture medium was replaced by an assay buffer consisting of HBBS with Ca^2+ and Mg^2+ (Invitrogen #14025-050), 20 mmol/L Hepes (Sigma-Aldrich #H-3375), 2.5 mmol/L probenecid (Sigma-Aldrich #P-8761, and 0.1% BSA (Sigma-Aldrich #A-7030) pH 7.4. The Calcium 5 no-wash FLIPR assay kit (Molecular Devices #5000625) was performed as described in the kit instructions. Cells were incubated with Calcium 5 dye for 1 h at 37° C., 5% CO2 in the dark. After 45 min adaptation to RT assessment of agonist stimulation of intracellular Ca^2+ release was performed by addition of test compounds at concentrations obtained by serial dilution. Phospho-fingolimod was used as positive control. Antagonists were pre-incubated for 10 min with cells before addition of the agonist (phospho-fingolimod at EC80). Measurements were performed using a fluorometric imaging plate reader FLIPR® tetra (Molecular Devices). Agonist at the human S1P receptors were characterized by deducing EC50 (potency) values from a nonlinear fit to the measured fluorescence raw data after normalization to the reference agonist (phospho-fingolimod) curve.

Chains of the proteins cited; added tags and fusions are not shown.
UniProt Q99500, whole entry: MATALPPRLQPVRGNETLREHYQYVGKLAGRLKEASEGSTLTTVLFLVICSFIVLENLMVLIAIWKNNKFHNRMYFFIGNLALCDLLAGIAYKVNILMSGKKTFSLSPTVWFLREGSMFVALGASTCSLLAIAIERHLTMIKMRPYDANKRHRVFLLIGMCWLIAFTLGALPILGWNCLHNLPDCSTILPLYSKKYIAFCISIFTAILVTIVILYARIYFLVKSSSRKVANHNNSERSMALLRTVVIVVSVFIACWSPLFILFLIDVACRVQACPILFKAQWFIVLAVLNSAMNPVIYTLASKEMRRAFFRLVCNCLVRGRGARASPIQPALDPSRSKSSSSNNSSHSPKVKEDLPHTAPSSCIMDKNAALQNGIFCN
UniProt Q9H228, whole entry: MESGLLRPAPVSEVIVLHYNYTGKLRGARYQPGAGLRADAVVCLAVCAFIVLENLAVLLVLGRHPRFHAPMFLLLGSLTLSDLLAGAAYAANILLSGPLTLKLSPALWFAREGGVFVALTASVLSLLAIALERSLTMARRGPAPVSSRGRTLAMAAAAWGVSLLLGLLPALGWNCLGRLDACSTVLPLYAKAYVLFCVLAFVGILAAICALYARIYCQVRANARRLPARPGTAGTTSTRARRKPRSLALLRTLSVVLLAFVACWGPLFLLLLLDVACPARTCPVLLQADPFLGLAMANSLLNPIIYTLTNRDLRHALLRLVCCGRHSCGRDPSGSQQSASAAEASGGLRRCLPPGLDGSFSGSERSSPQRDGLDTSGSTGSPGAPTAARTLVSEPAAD
UniProt P21453, whole entry: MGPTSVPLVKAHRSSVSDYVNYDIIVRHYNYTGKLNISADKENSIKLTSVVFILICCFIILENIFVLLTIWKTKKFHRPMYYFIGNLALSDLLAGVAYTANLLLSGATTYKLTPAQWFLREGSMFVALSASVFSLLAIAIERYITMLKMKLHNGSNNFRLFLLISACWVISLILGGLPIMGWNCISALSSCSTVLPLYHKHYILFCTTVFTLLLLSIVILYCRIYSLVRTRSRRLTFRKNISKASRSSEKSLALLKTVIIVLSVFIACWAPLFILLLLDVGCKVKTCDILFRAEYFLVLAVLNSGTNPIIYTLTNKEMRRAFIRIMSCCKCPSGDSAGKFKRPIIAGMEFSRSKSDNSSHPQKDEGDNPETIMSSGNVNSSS

human S1PR5 receptor = human S1PR5 receptor (Homo sapiens, UniProt Q9H228); settings: read-out: S1P5 EC50 range; agonist potency, determined with method 1 (symbols A-D)
Description: as §1, §2, §3, §4, §5

human S1PR1 receptor = human S1PR1 receptor (Homo sapiens, UniProt P21453); settings: read-out: S1P1 EC50; (1): determined with method 1
Description: as §1, §2, §3, §4, §5

- EC50 (human S1PR3 receptor): > 1000 nM
- EC50 (human S1PR5 receptor): 1000 to 10000 nM
- EC50 (human S1PR1 receptor): > 1000 nM
Compound: O=C(O)CCN1Cc2ccc(-c3cccc(OCc4c(Cl)cccc4Cl)c3)nc2C1

From patent US10556907B2 (AbbVie Inc., priority 2015, dated 2020)
